The target in test [1] is HA-tagged PLK1 polo-box domain mutant (UniProt P53350). Kind of test: co-IP; HA-tagged PLK1 (WT, KD or PBD mutant; 1 µg each) transiently transfected in U2OS; PLK1 pulled down by anti-HA antibody on protein A or G sepharose, overnight at 4°C; western blot for endogenous PCTAIRE1.
Test [2] concerns the target PCTAIRE1 (human (endogenous in 293T and U2OS)) (UniProt Q00536). Kind of test: co-IP; endogenous PCTAIRE1 immunoprecipitated from 293T lysate (NP-40 lysis buffer) with anti-PCTAIRE1 antibody on protein A or G sepharose, overnight at 4°C, washed three times with PBS; western blots for PP2A-A, PP2A-C, SIRT1 and DBC1. Background: In western blotting, separated proteins are transferred to a membrane and probed.

Amino acid sequences for entries named in this document (tags omitted). A change or cut given only in a name is not applied to a line headed by its entry.
UniProt P53350: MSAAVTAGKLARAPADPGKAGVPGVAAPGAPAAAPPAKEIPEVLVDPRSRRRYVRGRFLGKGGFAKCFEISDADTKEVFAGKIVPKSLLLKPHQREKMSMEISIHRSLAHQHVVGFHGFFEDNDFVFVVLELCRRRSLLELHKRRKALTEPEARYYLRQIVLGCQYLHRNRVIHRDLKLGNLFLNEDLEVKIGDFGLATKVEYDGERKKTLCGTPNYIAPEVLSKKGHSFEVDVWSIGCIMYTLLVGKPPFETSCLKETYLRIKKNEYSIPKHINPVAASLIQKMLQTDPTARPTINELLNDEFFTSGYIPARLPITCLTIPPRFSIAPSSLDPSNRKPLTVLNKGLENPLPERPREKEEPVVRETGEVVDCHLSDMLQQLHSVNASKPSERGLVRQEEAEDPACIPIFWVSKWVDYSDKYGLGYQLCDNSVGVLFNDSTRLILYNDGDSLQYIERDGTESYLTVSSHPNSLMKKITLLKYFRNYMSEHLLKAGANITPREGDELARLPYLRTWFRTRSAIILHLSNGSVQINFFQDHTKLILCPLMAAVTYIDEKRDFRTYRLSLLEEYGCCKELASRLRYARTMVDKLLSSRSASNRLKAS
UniProt Q00536: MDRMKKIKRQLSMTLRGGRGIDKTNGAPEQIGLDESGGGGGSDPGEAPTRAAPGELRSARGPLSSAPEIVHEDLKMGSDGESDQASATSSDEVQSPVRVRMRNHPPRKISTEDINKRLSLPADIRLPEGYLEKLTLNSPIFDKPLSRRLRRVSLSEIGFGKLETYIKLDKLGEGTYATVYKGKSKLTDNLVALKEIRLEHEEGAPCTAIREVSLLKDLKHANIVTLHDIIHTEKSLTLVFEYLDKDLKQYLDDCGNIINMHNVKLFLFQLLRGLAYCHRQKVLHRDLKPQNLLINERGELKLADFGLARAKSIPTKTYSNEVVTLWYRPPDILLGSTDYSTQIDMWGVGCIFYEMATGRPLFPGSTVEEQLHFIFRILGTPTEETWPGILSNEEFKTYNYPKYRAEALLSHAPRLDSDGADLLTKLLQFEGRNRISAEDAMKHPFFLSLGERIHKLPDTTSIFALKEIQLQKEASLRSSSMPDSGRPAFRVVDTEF
UniProt P67775: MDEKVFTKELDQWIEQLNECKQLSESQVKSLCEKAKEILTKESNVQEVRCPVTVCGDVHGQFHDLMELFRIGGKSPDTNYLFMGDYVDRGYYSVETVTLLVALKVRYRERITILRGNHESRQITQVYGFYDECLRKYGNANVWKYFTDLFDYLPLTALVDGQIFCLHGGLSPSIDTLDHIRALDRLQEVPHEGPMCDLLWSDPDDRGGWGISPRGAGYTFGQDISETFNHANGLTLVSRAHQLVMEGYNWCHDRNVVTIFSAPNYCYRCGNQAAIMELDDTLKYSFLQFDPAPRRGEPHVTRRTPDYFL

These are yes or no findings as the source states them, for the method shown. Binding seen in cells or lysates may run through a third protein. For some assays here: A result given as binding can be weak or reduced; the word gives no strength.

With PCTAIRE1 (from UniProt Q00536 1-496), the binding entry in test [1] was “no binding”.

Regarding PP2A C subunit (from UniProt P67775), the binding entry in test [2] is reported as “binds”.

Source of the values: PMC8918779.
